{"sequences": {"note": "Protein sequences, listed by entry. Tags and fused reporters are not part of them. Lines headed by an entry give the natural chain unless they say otherwise; changes in a name come on top. Residues count along the entry.", "UniProt O95863": "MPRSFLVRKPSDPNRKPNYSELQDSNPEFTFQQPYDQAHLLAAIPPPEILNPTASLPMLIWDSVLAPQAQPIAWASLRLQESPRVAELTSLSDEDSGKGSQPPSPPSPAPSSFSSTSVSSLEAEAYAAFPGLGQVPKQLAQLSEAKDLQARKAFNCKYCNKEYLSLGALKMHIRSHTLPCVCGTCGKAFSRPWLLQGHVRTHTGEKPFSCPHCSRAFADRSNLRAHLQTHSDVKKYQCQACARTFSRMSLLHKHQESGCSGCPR", "GFP-SNAI1-NT": "residues 1-151 of O95863"}, "source": "paper PMC5833831", "key": {"[1]": {"target": "GFP-SNAI1-NT (aa:1–151) (UniProt O95863)", "experiment": "co-IP; GFP-tagged truncations of PPIL2 or of SNAI1 expressed in T47D cells (Fig. 3e, f)"}, "[2]": {"target": "Flag-SNAI1 (pcDNA3.1-3×Flag-SNAI1) (UniProt O95863)", "experiment": "co-IP; overexpressed HA-PPIL2 and Flag-SNAI1; ZR-75-30 cells by the text, T47D cells by the legend (Fig. 3a, b)"}}, "note": "No constants are given. Whether binding was seen depends on the method and setting. Binding seen in cells or lysates may run through a third protein. Binding can be weak; no strength is given."}
{"substance": "HA-PPIL2 (peptidylprolyl isomerase (cyclophilin)-like 2) (from UniProt Q13356-2) (enzyme)", "values": [{"measurement": "binding", "setting": "[1]", "result": "binds"}, {"measurement": "binding", "setting": "[2]", "result": "binds"}]}
